Results on one molecule are retold here after publication PMC12221297, “Negative regulation of miRNA sorting into EVs is mediated by the capacity of RBP PCBP2 to impair the SYNCRIP-dependent miRNA loading”.

The chains behind the UniProt entries cited, without tags or fusion partners.
UniProt Q61990: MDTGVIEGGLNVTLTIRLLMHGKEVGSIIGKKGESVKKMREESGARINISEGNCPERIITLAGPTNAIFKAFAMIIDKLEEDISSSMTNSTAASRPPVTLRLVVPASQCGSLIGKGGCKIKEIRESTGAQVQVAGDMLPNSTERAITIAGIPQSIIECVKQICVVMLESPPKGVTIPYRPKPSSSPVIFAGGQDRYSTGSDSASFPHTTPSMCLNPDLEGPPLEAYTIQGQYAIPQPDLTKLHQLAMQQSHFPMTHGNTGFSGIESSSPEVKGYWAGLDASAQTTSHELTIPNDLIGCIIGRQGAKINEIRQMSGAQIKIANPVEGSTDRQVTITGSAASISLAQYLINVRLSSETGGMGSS

Results are given in words; binding and its absence hold for the method and conditions named. Binding seen in cells or lysates may run through a third protein. Some results given as binding are weak or reduced against the parent protein; the word gives no strength. Where a sequence is shown, tags or fusion partners need not be part of it.

This assay deals with PCBP2 (mouse (endogenous in murine hepatocyte 3A cells)) (UniProt Q61990). In words: co-IP; immunoprecipitation with rabbit polyclonal anti-PCBP2, mouse monoclonal anti-SYNCRIP or preimmune IgG from 2 mg protein extract of murine hepatocytes; IP Lysis Buffer (150 mM NaCl, 50 mM Tris-HCl pH 7.5, 1% Triton X-100), 4°C overnight; washes with Net Gel Buffer and RIPA Buffer; western ….

B1: Synaptotagmin-binding Cytoplasmic RNA-Interacting Protein (protein, UniProt Q7TMK9 1-623)
chain: MATEHVNGNGTEEPMDTTSAVIHSENFQTLLDAGLPQKVAEKLDEIYVAGLVAHSDLDERAIEALKEFNEDGALAVLQQFKDSDLSHVQNKSAFLCGVMKTYRQREKQGTKVADSSKGPDEAKIKALLERTGYTLDVTTGQRKYGGPPPDSVYSGQQPSVGTEIFVGKIPRDLFEDELVPLFEKAGPIWDLRLMMDPLTGLNRGYAFVTFCTKEAAQEAVKLYNNHEIRSGKHIGVCISVANNRLFVGSIPKSKTKEQILEEFSKVTEGLTDVILYHQPDDKKKNRGFCFLEYEDHKTAAQARRRLMSGKVKVWGNVGTVEWADPIEDPDPEVMAKVKVLFVRNLANTVTEEILEKSFSQFGKLERVKKLKDYAFIHFDERDGAVKAMEEMNGKDLEGENIEIVFAKPPDQKRKERKAQRQAAKNQMYDDYYYYGPPHMPPPTRGRGRGGRGGYGYPPDYYGYEDYYDYYGYDYHNYRGGYEDPYYGYEDFQVGARGRGGRGARGAAPSRGRGAAPPRGRAGYSQRGGPGSARGVRGARGGAQQQRGRGVRGARGGRGGNVGGKRKADGYNQPDTKRRQTNNQNWGSQPIAQQPLQGGDHSGNYGYKSENQEFYQDTFGQQWK
As to B1, the binding entry is given as “binds”.
